These results are taken from article PMC6603201.

Assay in all cases: SPR; CBP-FLAG immobilised by amine coupling on a CM5 chip (300-400 RU, 10 mM sodium acetate pH 4.5); serial dilutions of mouse chemokine flowed in triplicate for 3 min, 10 min dissociation; 25°C; HBS-EP buffer (20 mM HEPES, 150 mM NaCl, 3.4 mM EDTA, 0.005% Polysorbate 20, pH 7.4); Biacore X100; global fit with a 1:1 binding model; both purified
A general note: SPR reads the build-up and loss of mass on a sensor chip optically.

Experiment [1] has as its target PVNZ112.3-CBP (Parapoxvirus of red deer in New Zealand (PVNZ), strain RD86).
Experiment [2] addresses PVNZ112.6-CBP (Parapoxvirus of red deer in New Zealand (PVNZ), strain RD86).
In experiment [3] the target is PVNZ112.0-CBP (Parapoxvirus of red deer in New Zealand (PVNZ), strain RD86).

Results are given in words; binding and its absence hold for the method and conditions named. A result given as binding can be weak or reduced; the word gives no strength.

B1: recombinant mouse XCL1 (ligand, UniProt P47993 22-114)
chain: VGTEVLEESSCVNLQTQRLPVQKIKTYIIWEGAMRAVIFVTKRGLKICADPEAKWVKAAIKTVDGRASTRKNMAETVPTGAQRSTSTAITLTG
Consider B1, for which the binding entry in experiment [1] and in experiment [2] was “binds weakly” each time.

B2: recombinant mouse CX3CL1 (ligand, UniProt O35188 25-336)
chain: QHLGMTKCEIMCDKMTSRIPVALLIRYQLNQESCGKRAIVLETTQHRRFCADPKEKWVQDAMKHLDHQAAALTKNGGKFEKRVDNVTPGITLATRGLSPSALTKPESATLEDLALELTTISQEARGTMGTSQEPPAAVTGSSLSTSEAQDAGLTAKPQSIGSFEAADISTTVWPSPAVYQSGSSSWAEEKATESPSTTAPSPQVSTTSPSTPEENVGSEGQPPWVQGQDLSPEKSLGSEEINPVHTDNFQERGPGNTVHPSVAPISSEETPSPELVASGSQAPKIEEPIHATADPQKLSVLITPVPDTQAAT
As for B2, the binding entry is on record as “no binding” in experiment [3], “binds weakly” in experiment [1] and “no binding” in experiment [2].

B3: recombinant mouse CXCL2 (ligand, UniProt P10889 28-100)
chain: AVVASELRCQCLKTLPRVDFKNIQSLSVTPPGPHCAQTEVIATLKGGQKVCLDPEAPLVQKIIQKILNKGKAN
With B3, the binding result in experiment [2] is “binds weakly”.

B4: recombinant mouse CCL22 (ligand, UniProt O88430 25-92)
chain: GPYGANVEDSICCQDYIRHPLPSRLVKEFFWTSKSCRKPGVVLITVKNRDICADPRQVWVKKLLHKLS
As for B4, the results for the binding entry in experiment [3] and in experiment [1] were “binds weakly” and “no binding”, respectively.

B5: recombinant mouse CXCL1 (ligand, UniProt P12850 25-96)
chain: APIANELRCQCLQTMAGIHLKNIQSLKVLPSGPHCTQTEVIATLKNGREACLDPEAPLVQKIVQKMLKGVPK
For B5, the binding result in experiment [2] was “binds weakly”.

B6: recombinant mouse CCL19 (ligand, UniProt O70460 26-108)
chain: GANDAEDCCLSVTQRPIPGNIVKAFRYLLNEDGCRVPAVVFTTLRGYQLCAPPDQPWVDRIIRRLKKSSAKNKGNSTRRSPVS
As to B6, the binding entry in experiment [3] is reported as “binds weakly”.
